In paper PMC11020826:
These are yes or no findings as the source states them, for the method shown. For some assays here: In cells and extracts the contact can be indirect. For some assays here: A result given as binding can be weak or reduced; the word gives no strength. For some assays here: Sequences can lack the tags named with a protein. Values belong to the substance of their own block, whether it stands above or below them.

Key:
nYFP-PYE (Arabidopsis) = biological target: T1, nYFP-PYE (Arabidopsis) (UniProt Q9SN74); experiment: split reporter; BiFC 2in1 vector system (pBiFC-2in1-NN, N-terminal nYFP and cYFP fusions) in transiently transformed tobacco leaf epidermis cells; mRFP as transformation control
T1 sequence: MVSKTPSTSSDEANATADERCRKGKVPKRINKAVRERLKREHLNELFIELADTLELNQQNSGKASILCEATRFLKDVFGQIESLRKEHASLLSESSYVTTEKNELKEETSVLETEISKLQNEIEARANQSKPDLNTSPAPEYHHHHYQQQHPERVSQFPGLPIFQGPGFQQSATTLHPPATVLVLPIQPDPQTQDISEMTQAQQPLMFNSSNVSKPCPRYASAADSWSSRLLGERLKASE

nYFP-ILR3 (Arabidopsis) = biological target: T2, nYFP-ILR3 (Arabidopsis) (UniProt Q9FH37); experiment: as above
T2 sequence: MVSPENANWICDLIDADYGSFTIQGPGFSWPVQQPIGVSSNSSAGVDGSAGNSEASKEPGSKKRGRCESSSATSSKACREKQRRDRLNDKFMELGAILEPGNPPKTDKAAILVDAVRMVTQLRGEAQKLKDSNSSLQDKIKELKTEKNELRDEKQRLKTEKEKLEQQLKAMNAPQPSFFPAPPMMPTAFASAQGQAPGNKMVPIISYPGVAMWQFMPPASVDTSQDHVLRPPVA

[1] = biological target: T3, PYE-mCherry (Arabidopsis) (UniProt Q9SN74); experiment: FRET or BRET; FRET-APB (acceptor photobleaching) in nuclei of transiently transformed tobacco leaf epidermis cells; GFP donor, mCherry acceptor; ß-estradiol-induced; n = 15 nuclei; negative control donor only
T3 sequence: T1 sequence

[2] = biological target: T4, PYE-N-mCherry (Arabidopsis) (UniProt Q9SN74); experiment: as above
T4 sequence: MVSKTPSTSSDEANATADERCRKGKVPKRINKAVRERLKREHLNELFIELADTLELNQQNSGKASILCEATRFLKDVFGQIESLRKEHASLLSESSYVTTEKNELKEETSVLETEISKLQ

[3] = biological target: T5, PYE-ΔbHLH-mCherry (Arabidopsis) (UniProt Q9SN74); experiment: as above
T5 sequence: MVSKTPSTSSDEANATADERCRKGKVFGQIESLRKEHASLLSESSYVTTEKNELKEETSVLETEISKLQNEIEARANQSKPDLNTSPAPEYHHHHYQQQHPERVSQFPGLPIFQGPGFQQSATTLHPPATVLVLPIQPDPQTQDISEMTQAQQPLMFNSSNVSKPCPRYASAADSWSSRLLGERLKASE

[4] = biological target: T6, PYE-C-mCherry (Arabidopsis) (UniProt Q9SN74); experiment: as above
T6 sequence: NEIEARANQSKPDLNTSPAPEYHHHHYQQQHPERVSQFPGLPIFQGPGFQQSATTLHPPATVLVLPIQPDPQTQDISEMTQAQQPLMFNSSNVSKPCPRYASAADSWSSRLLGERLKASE

[5] = biological target: T7, POPEYE (PYE), full length, yeast two-hybrid fusion (Arabidopsis) (UniProt Q9SN74); experiment: two-hybrid; targeted Y2H in yeast; GAL4-AD and GAL4-BD fusions; 10-fold dilution series spotted on SD-LWH + 2 mM 3-AT
T7 sequence: T1 sequence

binding (nYFP-PYE (Arabidopsis)): no binding
Substance: cYFP-OLV-ΔTGIYY (Arabidopsis) (domain or fragment)

binding (nYFP-ILR3 (Arabidopsis)): no binding | binding (nYFP-PYE (Arabidopsis)): binds
Substance: cYFP-OLV (Arabidopsis)

binding [1]: binds | binding [2]: binds | binding [3]: binds | binding [4]: binds
Substance: OLV-GFP (Arabidopsis)

binding [5]: no binding
Substance: OLV-ΔTGIYY, yeast two-hybrid fusion (Arabidopsis) (domain or fragment)
